PubChem BioAssay AID1671195 – Yale University | 2021
Aim: 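Genes whose knockdown alters LDL uptake in liver cancer cells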 (primary screen). System: human Huh7 hepatoma cells. Reagents: siRNA pool against human genes, 18 nM. Duration: about 2 to 2.5 days of knockdown, then 8 h LDL uptake. Conditions: DiI-labelled LDL at 30 µg/ml for 8 h, in lipoprotein-deficient serum medium. Read-out: 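Per-cell DiI-LDL intensity by automated imaging; well means scaled to the plate median and given as a robust z-score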. Scale: robust z-score: higher = more LDL uptake after knockdown. Rule for the call: 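Active when two or more replicates show a robust z-score above 2 or below -2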.
The whole screen tested about 22,000 reagents; this is a random part of them. About 1,510 of all reagents (6.9%) count as active. 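Active includes knockdowns raising or lowering LDL uptake; positive z-scores mean more uptake, negative mean less.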 Entries without a mark were called inactive.

no.	gene knocked down	robust z-score, replicate 1	robust z-score, replicate 2	robust z-score, replicate 3
1	TYW3 (GeneID 127253)	-0.989	-0.888	-0.554
2	PAXIP1 (GeneID 22976)	-1.71	-0.334	-2.03
3	CRISP3 (GeneID 10321)	0.491	0.8	1.78
4	MISO1 (GeneID 285315)	0.359	0.631	0.499
5	MAPK9 (GeneID 5601)	0.582 (active)	2.99	2.97
6	DEFB109B (GeneID 641517)	0.218	0.073	0.141
7	GH2 (GeneID 2689)	-0.751	0.0909	-0.865
8	TAF10 (GeneID 6881)	0.426	-0.0375	1.1
9	LGSN (GeneID 51557)	-0.618	-0.605	-0.388
10	MAP3K7CL (GeneID 56911)	0.782	0.769	1.64
11	GALR2 (GeneID 8811)	-0.575	0.407	-0.437
12	LOC652276 (GeneID 652276)	-0.494	-0.952	-0.716
13	CSTF2T (GeneID 23283)	-0.463	0.681	0.136
14	SCRN1 (GeneID 9805)	1.26	0.0761	-0.474
15	MEX3B (GeneID 84206)	2.51 (active)	2.39	1.67
16	DMAP1 (GeneID 55929)	-0.0887	0.305	0.268
17	ESD (GeneID 2098)	-0.751	-1.1	-0.536
18	FITM1 (GeneID 161247)	0.425	0.263	0.687
19	CHRM2 (GeneID 1129)	-1.9	-1.43	-1.12
20	GADD45B (GeneID 4616)	-0.149	-0.039	0.2
21	ASIC2-AS1 (GeneID 147004)	-0.64	-0.38	-1.04
22	FETUB (GeneID 26998)	-0.379	0.566	0.173
23	GSTM4 (GeneID 2948)	-0.293	0.454	-1.03
24	CARD10 (GeneID 29775)	0.0904	-0.466	-0.823
25	FAM161B (GeneID 145483)	-0.088	-0.678	-0.924
26	RGS16 (GeneID 6004)	1.07	0.7	1.08
27	TEX2 (GeneID 55852)	-2.1	-0.417	-0.305
28	GPR162 (GeneID 27239)	0.738	1.26	0.868
29	NMU (GeneID 10874)	0.661	1.11	0.249
30	PPCS (GeneID 79717)	-0.972	0.296	-0.611
31	LINC02911 (GeneID 388276)	0.487	0.273	0.268
32	EXOSC8 (GeneID 11340)	1.37	2.34	1.06
33	WEE2-AS1 (GeneID 285962)	-1.78 (active)	-1.97	-2.03
34	WDR83OS (GeneID 51398)	0.839	0.991	1.79
35	ASIP (GeneID 434)	-0.733	0.0951	-1.13
36	TREM1 (GeneID 54210)	-0.86	-1.34	-0.922
37	ANKRD60 (GeneID 140731)	0.38	0.517	-0.713
38	AP4E1 (GeneID 23431)	-1.58	-2.05	-1.3
39	SCN8A (GeneID 6334)	1.06	0.565	0.731
40	ARL4A (GeneID 10124)	-0.981	-1.68	-1.56
41	PLAAT4 (GeneID 5920)	-1.24	-1.56	-1.4
42	DHX38 (GeneID 9785)	1.84	1.79	2.54
43	PMCHL1 (GeneID 5369)	-0.278	0.167	0.426
44	HLA-DMB (GeneID 3109)	-0.356	0.324	-0.238
45	THEM4 (GeneID 117145)	-0.227	-0.597	0.204
46	FMO1 (GeneID 2326)	0.388	1.45	0.975

Taken from above:
For “robust z-score, replicate 2”, MEX3B (GeneID 84206) shows 2.39 (active)
Under “robust z-score, replicate 3”, WDR83OS (GeneID 51398) is entered as 1.79
For “robust z-score, replicate 3”, PPCS (GeneID 79717) reads -0.611
Result for CHRM2 (GeneID 1129) under “robust z-score, replicate 3”: -1.12
Entry for PMCHL1 (GeneID 5369) in “robust z-score, replicate 2”: 0.167
Result for FAM161B (GeneID 145483) in “robust z-score, replicate 3”: -0.924
